Results deposited as PubChem BioAssay AID652272 (Drosophila RNAi Screening Center, 2013).

Assay: 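Genes whose knock-down decreases or increases Hedgehog reporter output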 (primary screen)
Cell system: Drosophila clone 8 (Cl8) cells
Reagents: long dsRNA against Drosophila genes
Measured: 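Plate reader light from a firefly reporter under a ptc promoter fragment that responds to Hedgehog, with Renilla light as transfection reference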
Scale: firefly Hh reporter signal: higher = more ptc reporter light; Renilla reference signal: higher = more Renilla control light
Rule for the call: 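Called a hit if the two-replicate mean z-score lies below -2 or above +3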
Meaning of the calls: active = hit: reporter lowered or raised; inactive = not a hit
The deposit covers about 21,000 reagents; below is an unselected part of those that have a named target and a result. Of all reagents, 503 (2.4%) got an active call. 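Raw plate light values, not normalised; calls rest on replicate z-scores that were not deposited; hits include reporter decreases as well as increases.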 A number with no mark means an inactive call. The numbers tell different reagents against one gene apart. A plus sign joins genes that one reagent is predicted to hit. Not given: the amount of reagent, the time to read-out.

target gene | reagent no. | firefly Hh reporter signal, replicate 1 | firefly Hh reporter signal, replicate 2 | firefly Hh reporter signal, replicate 3 | Renilla reference signal, replicate 1 | Renilla reference signal, replicate 2
Vsx1 | 1 | 1.87e5 (active) | 1.34e5 | 2.81e5 | 1634 | 5128
Vsx1 | 2 | 72140 | 73949 | – | 2720 | 3490
CG13484 | 1 | 61318 | – | – | 1684 | 2167
Lztr1 | 1 | 69987 | 2.23e5 | – | 2139 | 9472
Lztr1 | 2 | 76562 | 1.76e5 | – | 2497 | 7232
FipoQ | 1 | 64325 | 47552 | – | 2027 | 1841
CG31643 | 1 | 5.09e5 | 1.62e5 | – | 26475 | 7122
Ugt303B1 | 1 | 7.10e5 | 95457 | – | 32624 | 2848
CG42505 + CG42504 + CG31358 | 1 | 1.13e5 | 83859 | – | 4184 | 3643
CG42505 + CG42504 + CG31358 | 2 | 4.98e5 | 1.04e5 | – | 3664 | 3664
CG42505 + CG42504 + CG31358 | 3 | 1.56e5 | 1.26e5 | – | 5865 | 3401
Cpr92F | 1 | 6.26e5 | 1.16e5 | – | 34417 | 3493
La | 1 | 72315 | 41121 | – | 2279 | 4378
uzip | 1 | 84592 | 79536 | – | 3656 | 3292
alc | 1 | 1.28e5 | 81874 | – | 2896 | 6359
Mtap | 1 | 1.02e5 | 88141 | – | 4640 | 4279
CG6484 | 1 | 91506 | 93664 | – | 4424 | 4131
Ets96B | 1 | 4.14e5 | 95821 | – | 21463 | 2742
Atg18a | 1 | 1.48e5 | 70808 | – | 6121 | 2749
CG11911 | 1 | 89184 | 49908 | – | 3508 | 2116
CG17739 | 1 | 79762 | 52251 | – | 3456 | 2332
CG1688 | 1 | 52234 | 46427 | – | 2713 | 1618
CG31709 | 1 | 5.55e5 | 2.79e5 | – | 27522 | 11320
Naa30A | 1 | 71027 | 96120 | – | 816 | 1926
sordd2 + sordd1 | 1 | 68231 | 1.08e5 | – | 1648 | 2248
CG8778 | 1 | 62544 | 64444 | – | 1705 | 4499
CG13155 | 1 | 92836 | 87571 | – | 2370 | 6441
mtt | 1 | 58745 (active) | 1.35e5 | – | 1765 | 8362
mtt | 2 | 92188 | 2.58e5 | – | 1972 | 9832
mtt | 3 | 1.24e5 | 44198 | – | 2968 | 3952
mtt | 4 | 1.16e5 | 58916 | – | 2877 | 4659
CG14506 | 1 | 80073 | 84802 | – | 1777 | 2396
Lrch | 1 | 1.24e5 | 77563 | – | 4425 | 2547
sicily | 1 | 64994 | 2.73e5 | – | 1781 | 10073
CSN4 | 1 | 1.10e5 | 57541 | – | 2267 | 4608
CheB74a | 1 | 2.34e5 | – | – | 4982 | –
Srp14 | 1 | 6.61e5 | 1.10e5 | – | 36168 | 2914
CG11211 | 1 | 99440 | 90675 | – | 1881 | 7625
Mzt1 | 1 | 85671 | 1.53e5 | – | 2704 | 6005
Prosalpha6T | 1 | 1.03e5 | 54391 | – | 2713 | 4731
mus101 | 1 | 1.18e5 | 2.30e5 | – | 3478 | 10165
tutl | 1 | 1.16e5 | 41112 | – | 1361 | 4576
tutl | 2 | 78340 | 60296 | – | 1138 | 5632
tutl | 3 | 66352 | 35894 | – | 944 | 3188
CG8230 | 1 | 67436 | 41955 | – | 1625 | 3627
Ir51b | 1 | 1.78e5 | 2.34e5 | – | 4420 | 10154
pr | 1 | 1.18e5 | 56234 | – | 4352 | 2355
Syx6 | 1 | 68976 | 65606 | – | 2676 | 2336
CG32236 | 1 | 1.22e5 | 3.38e5 | – | 3584 | 12770
CG2901 | 1 | 72250 | 1.99e5 | – | 1379 | 8128
Ance-5 | 1 | 98306 | 79045 | – | 3362 | 3034
CG11350 | 1 | 67401 | 5.03e5 | 37987 | 7883 | 31652
Nop60B | 1 | 85344 | 50560 | – | 3808 | 2289
Chpf | 1 | 78118 | 2.63e5 | – | 2138 | 9122
Chpf | 2 | 89249 | 65409 | – | 1849 | 1766
CG10195 | 1 | 1.06e5 | 71980 | – | 2760 | 6883
CG13813 | 1 | 77928 | 1.34e5 | – | 2488 | 3942
Fancd2 | 1 | 5.77e5 | 78907 | – | 34652 | 5960
beag | 1 | 1.57e5 | 1.26e5 | – | 6089 | 4155
CG4806 | 1 | 69910 | 34935 | – | 2098 | 3942
CASK | 1 | 6.05e5 | 6.36e5 | 1.59e5 | 29461 | 4007
CASK | 2 | 6.41e5 | 1.85e5 | – | 29848 | 3908
CASK | 3 | 7.94e5 | 1.66e5 | – | 41527 | 3122
Snap29 | 1 | 58043 | 49090 | – | 1789 | 4832
CG2186 | 1 | 1.29e5 | 1.33e5 | – | 2471 | 2912
CG17375 | 1 | 1.27e5 | 81721 | – | 3252 | 6598
tio | 1 | 83484 | 54346 | – | 2288 | 4109
CG2811 | 1 | 67857 | 68483 | – | 1760 | 4762
bdwf | 1 | 1.04e5 | 72032 | – | 4210 | 2898
CG6873 | 1 | 56961 | 99416 | – | 595 | 5792
CG13603 | 1 | 66154 | 71174 | – | 3163 | 2971
CG2059 | 1 | 98224 | 2.07e5 | – | 3064 | 8090
NfI | 1 | 1.51e5 | 3.32e5 | – | 5916 | 12272

Entries listed so far with an active call, once more:
target gene | reagent no. | firefly Hh reporter signal, replicate 1 | firefly Hh reporter signal, replicate 2 | firefly Hh reporter signal, replicate 3 | Renilla reference signal, replicate 1 | Renilla reference signal, replicate 2
Vsx1 | 1 | 1.87e5 (active) | 1.34e5 | 2.81e5 | 1634 | 5128
mtt | 1 | 58745 (active) | 1.35e5 | – | 1765 | 8362
